The supplement of paper PMC10849652
The other results are listed elsewhere or left out.

Protein sequences, listed by entry. Tags and fused reporters are not part of them. Lines headed by an entry give the natural chain unless they say otherwise; changes in a name come on top.
UniProt Q8IZN3: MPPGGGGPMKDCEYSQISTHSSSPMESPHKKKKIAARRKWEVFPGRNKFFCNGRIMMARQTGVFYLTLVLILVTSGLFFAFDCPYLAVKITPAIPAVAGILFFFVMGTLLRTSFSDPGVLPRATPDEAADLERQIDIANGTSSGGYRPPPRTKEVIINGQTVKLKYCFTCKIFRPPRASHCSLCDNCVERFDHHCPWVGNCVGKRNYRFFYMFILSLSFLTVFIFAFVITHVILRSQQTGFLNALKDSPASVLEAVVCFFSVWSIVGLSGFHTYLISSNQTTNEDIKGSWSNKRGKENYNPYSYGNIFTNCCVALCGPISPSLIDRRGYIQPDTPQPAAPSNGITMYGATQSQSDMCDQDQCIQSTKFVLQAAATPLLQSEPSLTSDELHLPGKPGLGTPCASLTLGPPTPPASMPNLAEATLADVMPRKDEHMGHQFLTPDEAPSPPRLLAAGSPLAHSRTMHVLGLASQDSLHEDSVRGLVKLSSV
UniProt Q7Z7L7: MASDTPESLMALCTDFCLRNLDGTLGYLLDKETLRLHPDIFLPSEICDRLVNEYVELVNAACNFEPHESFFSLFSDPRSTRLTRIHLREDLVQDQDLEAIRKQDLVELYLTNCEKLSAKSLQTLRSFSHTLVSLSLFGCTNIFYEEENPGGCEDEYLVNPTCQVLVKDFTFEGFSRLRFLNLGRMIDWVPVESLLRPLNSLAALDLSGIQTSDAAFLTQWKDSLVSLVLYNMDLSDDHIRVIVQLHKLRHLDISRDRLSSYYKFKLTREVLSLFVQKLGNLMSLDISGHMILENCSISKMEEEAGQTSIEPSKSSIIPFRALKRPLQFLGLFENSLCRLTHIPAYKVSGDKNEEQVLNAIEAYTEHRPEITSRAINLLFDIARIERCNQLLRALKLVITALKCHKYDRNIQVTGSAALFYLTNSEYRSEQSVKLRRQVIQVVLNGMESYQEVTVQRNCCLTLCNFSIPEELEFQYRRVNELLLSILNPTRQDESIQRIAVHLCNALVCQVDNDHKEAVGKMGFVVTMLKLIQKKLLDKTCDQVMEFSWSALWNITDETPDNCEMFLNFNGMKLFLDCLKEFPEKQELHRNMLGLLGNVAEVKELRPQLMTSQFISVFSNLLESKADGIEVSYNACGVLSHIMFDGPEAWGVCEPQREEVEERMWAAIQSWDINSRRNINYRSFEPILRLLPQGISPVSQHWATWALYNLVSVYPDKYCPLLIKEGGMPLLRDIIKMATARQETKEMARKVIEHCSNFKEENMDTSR
UniProt P12956: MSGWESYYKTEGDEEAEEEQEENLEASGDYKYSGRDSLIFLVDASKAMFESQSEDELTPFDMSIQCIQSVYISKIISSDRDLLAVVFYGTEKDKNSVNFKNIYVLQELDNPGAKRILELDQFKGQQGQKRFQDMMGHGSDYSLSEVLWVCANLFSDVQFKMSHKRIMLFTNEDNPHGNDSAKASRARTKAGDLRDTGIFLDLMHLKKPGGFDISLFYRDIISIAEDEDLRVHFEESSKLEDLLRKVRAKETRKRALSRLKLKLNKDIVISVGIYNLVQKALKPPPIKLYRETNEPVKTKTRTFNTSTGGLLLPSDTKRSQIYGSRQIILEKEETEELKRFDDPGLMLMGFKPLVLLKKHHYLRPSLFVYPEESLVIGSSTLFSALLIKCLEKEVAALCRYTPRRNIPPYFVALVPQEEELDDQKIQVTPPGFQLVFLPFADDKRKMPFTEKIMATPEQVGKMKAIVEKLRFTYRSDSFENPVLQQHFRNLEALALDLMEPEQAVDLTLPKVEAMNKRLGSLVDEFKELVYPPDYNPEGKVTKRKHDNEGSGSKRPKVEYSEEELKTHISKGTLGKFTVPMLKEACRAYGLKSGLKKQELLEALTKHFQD
UniProt Q8NCN2: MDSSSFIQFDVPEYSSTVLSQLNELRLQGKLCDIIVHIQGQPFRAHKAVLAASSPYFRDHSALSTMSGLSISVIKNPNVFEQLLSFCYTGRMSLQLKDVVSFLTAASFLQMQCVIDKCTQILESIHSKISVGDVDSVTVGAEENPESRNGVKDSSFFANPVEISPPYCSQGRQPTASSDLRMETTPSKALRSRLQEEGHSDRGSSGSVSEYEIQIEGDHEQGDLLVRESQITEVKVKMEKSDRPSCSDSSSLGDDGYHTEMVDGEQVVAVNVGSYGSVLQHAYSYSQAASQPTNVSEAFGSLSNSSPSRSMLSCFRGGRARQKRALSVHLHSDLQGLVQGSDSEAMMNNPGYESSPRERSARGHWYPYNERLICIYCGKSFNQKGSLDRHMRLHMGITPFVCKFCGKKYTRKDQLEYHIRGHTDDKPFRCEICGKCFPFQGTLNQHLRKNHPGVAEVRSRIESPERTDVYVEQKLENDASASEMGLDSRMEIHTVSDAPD
UniProt O43829: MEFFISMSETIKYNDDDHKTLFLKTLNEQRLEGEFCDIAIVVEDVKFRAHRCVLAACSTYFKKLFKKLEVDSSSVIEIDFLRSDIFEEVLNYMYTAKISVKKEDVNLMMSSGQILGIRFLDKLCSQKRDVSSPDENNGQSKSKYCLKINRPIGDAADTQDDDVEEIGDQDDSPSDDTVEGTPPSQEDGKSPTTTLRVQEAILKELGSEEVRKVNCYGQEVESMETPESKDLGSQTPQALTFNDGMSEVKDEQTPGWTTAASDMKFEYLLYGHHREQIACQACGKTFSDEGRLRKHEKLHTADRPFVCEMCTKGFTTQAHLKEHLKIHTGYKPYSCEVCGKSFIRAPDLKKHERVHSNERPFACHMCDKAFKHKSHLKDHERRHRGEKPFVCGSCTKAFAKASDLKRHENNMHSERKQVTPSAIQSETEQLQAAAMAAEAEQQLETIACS
UniProt P25490, whole entry, looked up: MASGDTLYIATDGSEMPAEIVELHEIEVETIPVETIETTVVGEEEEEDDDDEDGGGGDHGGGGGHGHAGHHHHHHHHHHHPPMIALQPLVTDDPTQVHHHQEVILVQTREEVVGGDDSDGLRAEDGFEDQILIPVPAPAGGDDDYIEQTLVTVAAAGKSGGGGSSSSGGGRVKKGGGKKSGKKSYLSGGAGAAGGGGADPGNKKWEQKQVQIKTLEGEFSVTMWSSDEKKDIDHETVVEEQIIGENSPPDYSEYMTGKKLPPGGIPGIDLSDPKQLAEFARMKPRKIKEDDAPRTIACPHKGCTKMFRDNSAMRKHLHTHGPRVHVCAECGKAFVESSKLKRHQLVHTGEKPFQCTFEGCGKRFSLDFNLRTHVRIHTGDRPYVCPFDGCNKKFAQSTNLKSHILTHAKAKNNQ
UniProt O76080: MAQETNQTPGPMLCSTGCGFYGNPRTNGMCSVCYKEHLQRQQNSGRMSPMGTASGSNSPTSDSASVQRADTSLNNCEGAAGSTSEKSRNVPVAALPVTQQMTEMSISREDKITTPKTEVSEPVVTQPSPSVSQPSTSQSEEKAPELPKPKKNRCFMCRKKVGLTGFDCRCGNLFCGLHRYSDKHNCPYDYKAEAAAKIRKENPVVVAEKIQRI
UniProt Q9Y2K1: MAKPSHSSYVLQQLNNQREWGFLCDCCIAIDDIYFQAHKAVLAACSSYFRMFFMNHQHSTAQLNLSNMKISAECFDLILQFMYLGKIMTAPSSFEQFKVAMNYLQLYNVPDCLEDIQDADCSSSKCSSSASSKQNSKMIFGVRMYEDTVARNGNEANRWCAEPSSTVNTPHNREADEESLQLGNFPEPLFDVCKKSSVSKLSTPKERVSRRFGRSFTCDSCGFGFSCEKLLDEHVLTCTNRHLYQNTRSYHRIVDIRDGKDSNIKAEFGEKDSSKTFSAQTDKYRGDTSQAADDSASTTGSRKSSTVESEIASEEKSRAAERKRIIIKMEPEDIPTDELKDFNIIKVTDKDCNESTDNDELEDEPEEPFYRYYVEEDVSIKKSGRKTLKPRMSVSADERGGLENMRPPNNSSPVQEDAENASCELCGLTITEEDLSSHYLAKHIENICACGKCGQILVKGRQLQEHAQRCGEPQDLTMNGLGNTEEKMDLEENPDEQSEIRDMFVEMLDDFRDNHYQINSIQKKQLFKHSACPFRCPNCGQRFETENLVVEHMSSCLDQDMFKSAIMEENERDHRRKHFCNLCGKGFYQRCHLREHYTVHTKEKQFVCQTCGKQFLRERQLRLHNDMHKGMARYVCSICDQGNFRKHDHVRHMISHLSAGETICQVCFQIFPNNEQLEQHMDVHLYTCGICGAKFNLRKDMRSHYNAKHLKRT
UniProt Q96K21: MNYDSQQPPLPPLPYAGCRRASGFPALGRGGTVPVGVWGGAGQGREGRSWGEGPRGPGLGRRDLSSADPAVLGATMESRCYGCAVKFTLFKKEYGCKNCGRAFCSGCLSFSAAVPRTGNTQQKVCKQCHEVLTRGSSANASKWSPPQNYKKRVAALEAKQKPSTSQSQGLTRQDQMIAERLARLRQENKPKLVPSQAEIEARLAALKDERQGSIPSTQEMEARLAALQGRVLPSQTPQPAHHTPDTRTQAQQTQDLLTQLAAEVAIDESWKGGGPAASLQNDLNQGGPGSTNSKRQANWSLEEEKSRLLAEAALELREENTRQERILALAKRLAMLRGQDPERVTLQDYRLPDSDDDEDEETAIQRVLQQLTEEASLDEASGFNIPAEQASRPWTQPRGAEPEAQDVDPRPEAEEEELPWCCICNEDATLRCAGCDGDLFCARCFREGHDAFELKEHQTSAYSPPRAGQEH
UniProt Q9P243: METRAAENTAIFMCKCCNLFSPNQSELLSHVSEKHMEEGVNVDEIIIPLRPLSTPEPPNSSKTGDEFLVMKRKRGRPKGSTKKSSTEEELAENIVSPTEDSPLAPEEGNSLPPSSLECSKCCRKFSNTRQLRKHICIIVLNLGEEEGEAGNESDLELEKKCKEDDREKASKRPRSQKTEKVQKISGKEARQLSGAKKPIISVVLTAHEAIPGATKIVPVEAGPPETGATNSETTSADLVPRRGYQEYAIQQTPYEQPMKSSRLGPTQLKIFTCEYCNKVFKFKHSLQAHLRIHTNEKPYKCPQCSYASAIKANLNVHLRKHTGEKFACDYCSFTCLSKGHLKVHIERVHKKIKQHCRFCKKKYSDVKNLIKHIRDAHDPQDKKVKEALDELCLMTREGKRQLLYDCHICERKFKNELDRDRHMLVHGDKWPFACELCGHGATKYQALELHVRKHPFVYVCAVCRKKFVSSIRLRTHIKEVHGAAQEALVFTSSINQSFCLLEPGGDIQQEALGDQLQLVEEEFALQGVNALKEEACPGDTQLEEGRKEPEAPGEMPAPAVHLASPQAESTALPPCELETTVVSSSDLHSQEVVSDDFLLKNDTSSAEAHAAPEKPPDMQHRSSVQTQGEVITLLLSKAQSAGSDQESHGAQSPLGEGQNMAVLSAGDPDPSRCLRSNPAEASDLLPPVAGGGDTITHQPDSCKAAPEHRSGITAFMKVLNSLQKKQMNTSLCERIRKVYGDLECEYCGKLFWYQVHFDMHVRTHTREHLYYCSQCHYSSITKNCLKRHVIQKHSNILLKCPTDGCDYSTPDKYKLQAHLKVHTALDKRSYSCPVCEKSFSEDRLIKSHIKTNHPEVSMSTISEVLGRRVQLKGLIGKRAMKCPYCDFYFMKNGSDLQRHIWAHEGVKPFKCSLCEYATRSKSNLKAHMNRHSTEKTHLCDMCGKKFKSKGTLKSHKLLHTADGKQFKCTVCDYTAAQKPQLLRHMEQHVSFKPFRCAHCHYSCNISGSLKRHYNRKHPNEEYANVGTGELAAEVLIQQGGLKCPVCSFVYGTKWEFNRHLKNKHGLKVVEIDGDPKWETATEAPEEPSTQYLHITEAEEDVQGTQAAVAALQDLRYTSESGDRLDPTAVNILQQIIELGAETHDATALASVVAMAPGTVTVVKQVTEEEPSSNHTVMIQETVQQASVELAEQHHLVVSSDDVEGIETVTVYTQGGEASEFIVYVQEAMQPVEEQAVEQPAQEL
UniProt Q49AG3: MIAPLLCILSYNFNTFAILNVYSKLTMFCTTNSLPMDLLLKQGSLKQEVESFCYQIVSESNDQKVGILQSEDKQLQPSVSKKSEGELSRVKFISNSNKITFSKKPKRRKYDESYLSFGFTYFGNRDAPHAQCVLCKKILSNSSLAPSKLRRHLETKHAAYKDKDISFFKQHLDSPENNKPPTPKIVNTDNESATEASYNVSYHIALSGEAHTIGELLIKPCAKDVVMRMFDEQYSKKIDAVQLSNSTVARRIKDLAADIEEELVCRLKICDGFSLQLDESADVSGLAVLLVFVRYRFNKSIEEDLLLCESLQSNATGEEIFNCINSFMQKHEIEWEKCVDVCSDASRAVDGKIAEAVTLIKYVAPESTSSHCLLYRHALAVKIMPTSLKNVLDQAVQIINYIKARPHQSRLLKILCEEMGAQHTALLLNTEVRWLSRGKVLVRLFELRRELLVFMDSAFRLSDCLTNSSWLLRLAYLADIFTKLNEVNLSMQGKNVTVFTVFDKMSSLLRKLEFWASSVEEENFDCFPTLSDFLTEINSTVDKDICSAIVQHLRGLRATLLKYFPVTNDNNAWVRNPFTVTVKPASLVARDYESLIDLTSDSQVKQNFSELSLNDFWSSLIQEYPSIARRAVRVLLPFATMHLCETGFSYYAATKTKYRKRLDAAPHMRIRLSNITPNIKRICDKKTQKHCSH

Experiments:
Assay in all cases: log2 fold change, soluble protein after heating vs DMSO (PISA); higher = thermal stabilisation; K562 lysate, 10 uM; active = over 0.2 and 3.5 SD of the protein, either way, in both replicates (recomputed)
lapatinib = compound: CS(=O)(=O)CCNCc1ccc(-c2ccc3ncnc(Nc4ccc(OCc5cccc(F)c5)c(Cl)c4)c3c2)o1 [lapatinib]
Procedure, shortened: (§1)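 Dounce homogenisation of K562 pellets in PBS pH 7.4 with 1 mM MgCl2 produced a crude extract, used at 1 mg/mL protein. Exposure to 10 μM compound lasted 30 min, and aliquots were then heated for 3 min across 48°C-58°C, pooled and brought to 0.5% NP-40 at 4°C. The supernatant after 21,000xg for 90 min was quantified by TMTpro 16plex LC-MS/MS with channel sums equalised. Duplicate values are given as log-two fold change in thermal stability relative to solvent controls.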

crizotinib = compound: C[C@@H](Oc1cc(-c2cnn(C3CCNCC3)c2)cnc1N)c1c(Cl)ccc(F)c1Cl [crizotinib]
Procedure, shortened: as §1

[1] = compound: C[C@H](C1=CC=C(C=C1)C(=O)NC2=C3C=CNC3=NC=C2)N
Procedure, shortened: as §1

duvelisib = compound: C[C@H](Nc1ncnc2nc[nH]c12)c1cc2cccc(Cl)c2c(=O)n1-c1ccccc1 [duvelisib]
Procedure, shortened: as §1

gandotinib = compound: Cc1cc(Nc2cc(CN3CCOCC3)c3nc(C)c(Cc4ccc(Cl)cc4F)n3n2)n[nH]1 [gandotinib]
Procedure, shortened: as §1

tozasertib = compound: Cc1cc(Nc2cc(N3CCN(C)CC3)nc(Sc3ccc(NC(=O)C4CC4)cc3)n2)n[nH]1 [tozasertib]
Procedure, shortened: as §1

doramapimod = compound: Cc1ccc(-n2nc(C(C)(C)C)cc2NC(=O)Nc2ccc(OCCN3CCOCC3)c3ccccc23)cc1 [doramapimod]
Procedure, shortened: as §1

[2] = compound: Cc1cccc(CC(=O)N2CCc3c2ccc(-c2cn(C)c4ncnc(N)c24)c3F)n1
Procedure, shortened: as §1

pictilisib = compound: CS(=O)(=O)N1CCN(Cc2cc3nc(-c4cccc5[nH]ncc45)nc(N4CCOCC4)c3s2)CC1 [pictilisib]
Procedure, shortened: as §1

bafetinib = compound: Cc1ccc(NC(=O)c2ccc(CN3CC[C@H](N(C)C)C3)c(C(F)(F)F)c2)cc1Nc1nccc(-c2cncnc2)n1 [bafetinib]
Procedure, shortened: as §1

Target | log2 fold change (lapatinib) | log2 fold change (crizotinib) | log2 fold change [1] | log2 fold change (duvelisib) | log2 fold change (gandotinib) | log2 fold change (tozasertib) | log2 fold change (doramapimod) | log2 fold change [2] | log2 fold change (pictilisib) | log2 fold change (bafetinib)
ZDHHC14 (UniProt Q8IZN3) | inactive: -0.065 | inactive: 0.074 | inactive: -0.221 | inactive: -0.002 | inactive: -0.321 | inactive: 0.048 | inactive: -0.029 | inactive: -0.021 |  | 
ZER1 (UniProt Q7Z7L7) | inactive: 0.044 | inactive: 0.066 | inactive: -0.262 | inactive: 0.008 | inactive: 0.07 | inactive: -0.112 | inactive: 0.209 | inactive: 0.083 | inactive: -0.101 | inactive: 0.038
XRCC6 (UniProt P12956) | inactive: -0.017 | inactive: -0.024 | inactive: -0.013 | inactive: 0.002 | inactive: -0.072 | inactive: -0.019 | inactive: -0.014 | inactive: 0.002 | inactive: 0.023 | inactive: -0.016
ZC3H11A (UniProt O75152) | inactive: -0.09 | inactive: -0.071 | inactive: 0.222 | inactive: 0.013 | inactive: -0.12 | inactive: 0.016 | inactive: 0.013 | inactive: -0.134 | inactive: -0.046 | inactive: -0.113
ZC3HAV1 (UniProt Q7Z2W4) | inactive: 0 | inactive: -0.011 | inactive: 0.012 | inactive: 0.011 | inactive: -0.062 | inactive: -0.041 | inactive: 0.057 | inactive: 0.015 | inactive: 0.021 | inactive: -0.01
ZBTB34 (UniProt Q8NCN2) | inactive: 0.043 |  |  | inactive: 0.082 |  |  |  |  | inactive: -0.244 | inactive: -0.217
ZC3H12C isoform 2 (UniProt Q9C0D7) | inactive: -0.04 | inactive: -0.107 | inactive: -0.005 | inactive: 0.137 | inactive: -0.086 |  | inactive: -0.019 | inactive: -0.124 | inactive: -0.251 | inactive: 0.058
ZFYVE1 (UniProt Q9HBF4) | inactive: -0.008 | inactive: -0.202 | inactive: -0.017 | inactive: -0.015 | inactive: -0.04 |  | inactive: 0.206 | inactive: 0.219 | inactive: 0.063 | inactive: -0.208
ZBTB14 (UniProt O43829) | inactive: -0.021 | inactive: 0.081 | inactive: -0.132 | inactive: 0.046 | inactive: 0.076 |  | inactive: -0.155 | inactive: -0.017 | inactive: -0.023 | inactive: -0.127
YY1 (UniProt P25490) | inactive: 0.008 | inactive: 0.071 | inactive: 0.11 | inactive: 0.016 | inactive: -0.162 | inactive: 0.043 | inactive: 0.019 | inactive: -0.09 | inactive: 0.078 | inactive: -0.006
YWHAZ (UniProt E7EX29) | inactive: 0.251 |  |  |  |  | inactive: 0 |  |  | inactive: -0.124 | inactive: 0.215
ZFAND5 (UniProt O76080) | inactive: 0.092 | inactive: -0.018 | inactive: -0.051 | inactive: -0.056 | inactive: 0.022 |  | inactive: 0.032 | inactive: 0.078 | inactive: 0.029 | inactive: 0.11
ZEB2 (UniProt O60315) | inactive: -0.179 | inactive: 0.014 |  | inactive: 0.045 |  | inactive: 0.02 | inactive: -0.049 |  | inactive: 0.141 | inactive: -0.117
YEATS2 (UniProt Q9ULM3) | inactive: -0.093 | inactive: -0.029 |  |  |  | inactive: -0.125 | inactive: 0.035 |  | inactive: -0.126 | inactive: -0.248
ZC3HC1 (UniProt Q86WB0) | inactive: 0.042 | inactive: 0.023 | active: 0.222 | inactive: 0.013 | inactive: -0.082 | inactive: -0.036 | inactive: 0.025 | inactive: -0.094 | inactive: 0.001 | inactive: -0.019
ZBTB1 (UniProt Q9Y2K1) | inactive: -0.083 |  | inactive: -0.071 |  | inactive: 0.087 | inactive: -0.171 |  | inactive: -0.182 | inactive: -0.096 | inactive: -0.29
ZFYVE19 isoform 3 (UniProt Q96K21) | inactive: 0.114 |  |  |  |  |  |  |  | inactive: -0.02 | inactive: -0.013
ZFAT (UniProt Q9P243) |  |  |  |  |  | inactive: 0.045 |  |  |  | 
ZC3H12A (UniProt Q5D1E8) |  | inactive: 0.083 |  | inactive: 0.378 |  | inactive: -0.093 | inactive: -0.073 |  |  | 
ZCCHC4 (UniProt Q9H5U6) |  |  | inactive: 0.334 | inactive: -0.033 | inactive: 0.055 | inactive: 0.033 |  | inactive: -0.076 |  | 
ZBED5 (UniProt Q49AG3) |  |  |  | inactive: -0.087 |  |  |  |  |  | 
ZC3H7A (UniProt Q8IWR0) |  | inactive: -0.074 | inactive: -0.304 | inactive: 0.075 | inactive: 0.036 | inactive: -0.042 | inactive: 0.006 | inactive: 0.339 | inactive: -0.115 | inactive: -0.056
ZDHHC9 (UniProt Q9Y397) |  | inactive: 0.087 | inactive: -0.113 |  | inactive: 0.14 |  | inactive: 0.099 | inactive: 0.04 |  | 

2 records drawn at random from those above:
Target | log2 fold change (lapatinib) | log2 fold change (crizotinib) | log2 fold change [1] | log2 fold change (duvelisib) | log2 fold change (gandotinib) | log2 fold change (tozasertib) | log2 fold change (doramapimod) | log2 fold change [2] | log2 fold change (pictilisib) | log2 fold change (bafetinib)
ZBTB14 (UniProt O43829) | inactive: -0.021 | inactive: 0.081 | inactive: -0.132 | inactive: 0.046 | inactive: 0.076 |  | inactive: -0.155 | inactive: -0.017 | inactive: -0.023 | inactive: -0.127
XRCC6 (UniProt P12956) | inactive: -0.017 | inactive: -0.024 | inactive: -0.013 | inactive: 0.002 | inactive: -0.072 | inactive: -0.019 | inactive: -0.014 | inactive: 0.002 | inactive: 0.023 | inactive: -0.016
